# Test results published in paper PMC11145794.
# By UniProt entry, the sequences of proteins in these tests, tags left out.
# UniProt A2F7V1: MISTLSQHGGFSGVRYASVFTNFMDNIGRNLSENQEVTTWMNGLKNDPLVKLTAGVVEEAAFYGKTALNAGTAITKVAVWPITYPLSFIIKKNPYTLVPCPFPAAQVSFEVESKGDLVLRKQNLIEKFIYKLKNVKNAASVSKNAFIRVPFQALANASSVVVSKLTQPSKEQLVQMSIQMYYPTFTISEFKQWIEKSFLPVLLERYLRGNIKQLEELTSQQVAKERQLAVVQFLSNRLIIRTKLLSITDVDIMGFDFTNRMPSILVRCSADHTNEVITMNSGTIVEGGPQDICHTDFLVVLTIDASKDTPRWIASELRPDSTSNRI
# UniProt A2DIG2: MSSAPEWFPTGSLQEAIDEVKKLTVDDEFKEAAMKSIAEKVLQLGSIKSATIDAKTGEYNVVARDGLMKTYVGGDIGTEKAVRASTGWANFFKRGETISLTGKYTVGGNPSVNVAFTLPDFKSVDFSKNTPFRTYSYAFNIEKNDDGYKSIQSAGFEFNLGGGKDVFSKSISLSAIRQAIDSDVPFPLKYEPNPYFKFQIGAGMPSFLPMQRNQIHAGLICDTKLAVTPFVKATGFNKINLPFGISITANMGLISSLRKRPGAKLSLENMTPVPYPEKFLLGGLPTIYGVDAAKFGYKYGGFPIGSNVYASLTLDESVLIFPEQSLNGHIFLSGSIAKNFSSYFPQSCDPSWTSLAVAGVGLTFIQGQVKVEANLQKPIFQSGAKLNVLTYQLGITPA
# UniProt A2DDM1: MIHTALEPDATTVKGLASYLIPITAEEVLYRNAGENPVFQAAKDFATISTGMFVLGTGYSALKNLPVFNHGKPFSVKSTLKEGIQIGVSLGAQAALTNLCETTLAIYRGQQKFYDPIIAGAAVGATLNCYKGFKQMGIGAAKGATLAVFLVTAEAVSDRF
# No constants are given. Whether binding was seen depends on the method and setting. In cells and extracts the contact can be indirect. Some results given as binding are weak or reduced against the parent protein; the word gives no strength. For part of these data: Sequences can lack the tags named with a protein.
# What was measured:
# [1] = biological target: Tim44 with C-terminal di-HA tag (Tim44-HA) (Trichomonas vaginalis) (UniProt A2F7V1); assay: co-IP; hydrogenosomes of strains co-expressing an HA-tagged bait and TvTim22-V5, solubilised with 1% Triton X-100 at 1 mg/ml protein; anti-HA Dynabeads; immunoblot with anti-HA, anti-V5 and anti-Sam50
# [2] = biological target: T1, AAC1 (Hmp31) with C-terminal di-HA tag (AAC1-HA) (Trichomonas vaginalis); assay: as above
# T1 sequence: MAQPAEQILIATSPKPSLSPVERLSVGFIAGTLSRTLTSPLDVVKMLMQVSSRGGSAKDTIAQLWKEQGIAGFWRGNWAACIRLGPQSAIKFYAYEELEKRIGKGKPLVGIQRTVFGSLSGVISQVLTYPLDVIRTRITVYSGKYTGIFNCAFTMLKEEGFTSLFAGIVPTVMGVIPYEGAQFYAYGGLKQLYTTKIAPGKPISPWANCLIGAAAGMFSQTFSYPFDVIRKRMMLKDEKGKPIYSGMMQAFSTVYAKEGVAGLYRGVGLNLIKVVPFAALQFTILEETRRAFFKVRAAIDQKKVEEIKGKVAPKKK
binding [1],binding [2],Substance
no binding,–,Sam50 (endogenous) (from UniProt A2DIG2 1-398)
binds,binds,TvTim22 with C-terminal di-V5 tag (TvTim22-V5) (from UniProt A2DDM1 1-160)
